# Library screening results

The chains behind the UniProt entries cited, without tags or fusion partners.
UniProt E9BF75, entry or part of it: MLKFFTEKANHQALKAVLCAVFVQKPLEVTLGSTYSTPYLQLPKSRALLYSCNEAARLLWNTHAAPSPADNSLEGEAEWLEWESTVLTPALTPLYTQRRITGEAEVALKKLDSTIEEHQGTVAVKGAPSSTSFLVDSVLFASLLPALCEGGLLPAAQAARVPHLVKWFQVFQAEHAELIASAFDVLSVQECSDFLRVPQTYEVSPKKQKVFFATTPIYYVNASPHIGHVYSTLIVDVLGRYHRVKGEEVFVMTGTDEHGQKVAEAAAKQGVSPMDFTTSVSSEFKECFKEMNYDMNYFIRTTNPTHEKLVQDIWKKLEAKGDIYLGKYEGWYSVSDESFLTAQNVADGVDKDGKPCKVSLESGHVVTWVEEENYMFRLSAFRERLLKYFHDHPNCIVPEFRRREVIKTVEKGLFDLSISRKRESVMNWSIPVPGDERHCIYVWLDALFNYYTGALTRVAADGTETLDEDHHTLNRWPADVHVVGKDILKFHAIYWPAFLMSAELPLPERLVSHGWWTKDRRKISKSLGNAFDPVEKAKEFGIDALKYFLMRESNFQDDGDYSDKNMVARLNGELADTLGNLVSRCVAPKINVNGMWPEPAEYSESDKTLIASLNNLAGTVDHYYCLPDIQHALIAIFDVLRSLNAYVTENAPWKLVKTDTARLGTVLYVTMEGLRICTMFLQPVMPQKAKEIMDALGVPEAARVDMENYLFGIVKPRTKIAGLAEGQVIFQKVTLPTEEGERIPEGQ

From ChEMBL document CHEMBL3988442, “University of Dundee, Small-Polar-MMV Screening Library” (2021).

Results are percentages, as filed.
The controls that fix the scale are not given in the record; negative values are as filed.
Compounds were drawn at random from those tested, without regard to their results.

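Methionyl-tRNA synthetase (putative), Leishmania donovani (UniProt E9BF75). Primary screen of methionyl-tRNA synthetase; the read-out is not stated. The test concentration is not given. Values are per cent inhibition. Size under these conditions: about 68,000 compounds, about 24 of them at 50% or above in at least one test.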

compound,inhibition
CCCN(CCOC)c1nc(C)nc2sccc12,7.216%
Nc1ncccc1CN1CCCn2nc(CCC(=O)NC3CC3)cc2C1,14.65%
CN(CCc1ccncc1)CCc1nccs1,6.497%
Cc1nccn1CCC(=O)N1CCCN(c2ccccc2)CC1,9.278%
Cc1nc(-c2ccccc2C(=O)O)cc(C2CCN(C(C)C)C2)n1 (stereo not drawn),3.155%
O=C(Cc1ccccc1)N1CC[C@@H]2CNS(=O)(=O)[C@@H]2CC1,14.88%
Cc1ccc(C2COCCN2C(=O)c2ccc(F)c(F)c2)o1 (stereo not drawn),9.019%
CC(C)NC(=O)[C@H]1C[C@@H]2[C@@H](C1)OCCN2Cc1ccco1,-1.629%
Cc1ccc(C(=O)N2CCCn3nc(CCC(=O)O)cc3C2)cc1Cl,18.73%
OC1(CN2CCC(Oc3cccnc3)CC2)CNCCOC1 (stereo not drawn),7.494%
N#CCCN(CCC#N)C(=O)COC1CCCCC1,3.509%
CCc1ncc(C(=O)N(C)CCc2nc3cc(OC)ccc3[nH]2)cn1,1.362%
CCC[C@H]1CN(S(C)(=O)=O)C[C@@H]1NC(=O)CCOCC,7.5%
Cc1ccccc1CN1CCC2(CCCN2C(=O)C(C)C)CC1,10.08%
O=C(NCc1ccco1)[C@H]1CC[C@@H]2[C@@H](CCN2c2ncc(F)cn2)O1,0.6536%
COc1ccccc1OC1CN(C(=O)Cc2c(C)nc(C)[nH]c2=O)C1,2.941%
COc1cccc(N2CCN(Cc3nccn3C(C)C)CC2=O)c1,11.27%
NCCO[C@H]1C[C@@H](O)C12CCN(C1Cc3ccccc3C1)CC2,6.091%
O=C1COC2(CCN(Cc3ccoc3)CC2)CN1c1ccccc1,17.18%
Cc1ccc(CNC2(Cc3cc(CC(C)C)on3)COC2)o1,3.729%
Cc1nn(C)c2ncc(CN3CCCCCC3)cc12,9.859%
Cc1nn(C)c2cnn(C(C)C(=O)NCc3cccnc3)c12 (stereo not drawn),17.84%
Cc1ccc(N2CCCN(C(=O)C(C(C)C)n3cncn3)CC2)nn1 (stereo not drawn),17.46%
CN1CCCC(CNC(=O)N(C)Cc2ccc(Cl)c(F)c2)C1 (stereo not drawn),4.348%
CC(C)n1nnc(CC(=O)NCC2(c3ccccc3F)CCCC2)n1,7.764%
CC(c1nnc(-c2ccccc2)o1)N1CCc2cncnc2C1 (stereo not drawn),13.18%
O=C1CCCN1CC1CN(C(=O)C2CCOCC2)Cc2nccn2C1 (stereo not drawn),6.383%
CNC(=O)[C@H]1C[C@@H]2CN(C(=O)c3ccc(C)o3)C[C@@H]2N1S(C)(=O)=O,3.014%
CC(C)(C)c1nnc(CNc2c(F)cccc2-n2cccn2)o1,14.61%
NS(=O)(=O)CC1CCN(c2ncccc2C(F)(F)F)CC1,9.409%
CN(C)c1nccc(N(C)C2CCN(CC3CCOC3)CC2)n1 (stereo not drawn),12.57%
CCOc1ccnc(N2CCN(CCOC)CC2)n1,11.45%
CSCC1CCN(c2nc(N)ncc2C)CC1,11.06%
COc1cc(NC(=O)c2ccccc2F)c(C(=O)N(C)C)cc1OC,8.661%
CN1CC(=O)N(c2cccnc2)CC12CCN(C(=O)c1cccn1C)C2 (stereo not drawn),4.11%
CN1CC(c2ccccc2)CC12CCN(C(=O)c1ccc(Cl)cn1)CC2 (stereo not drawn),3.846%
COCCc1noc(CN(C)C(=O)C2COc3ccccc3C2)n1 (stereo not drawn),16.05%
COc1ccc(CN[C@H]2CC[C@@]3(CCC(=O)N3)CC2)cc1,9.444%
CC(C)c1nn(C)c(N2CCOCC2)c1CNCc1cscn1,14.5%
COC(C)(C)c1noc(C2(C#N)CCCCC2)n1,0%
Cc1csc(NC(=O)CN2CCc3nn(C)c(=O)cc3C2)n1,12.36%
O=C(NCc1ccc(-n2cncn2)nc1)c1cc(Cl)c2c(c1)OCCO2,15.64%
COC(=O)CNC(=O)N1CCN(c2nc3ccccc3n2C)CC1,6.197%
O=C(NCC1CCN(C(=O)c2ccoc2)CC1)c1ccccc1Br,10.34%
O=C([C@H]1CCCO1)N1CCC2(CCCN(CCOc3ccccc3)C2)C1 (stereo partly drawn),-0.3205%
CNC(=O)[C@@H]1CN(C(=O)COC)C[C@H]1c1ccnc(N2CCCC2)n1,14.78%
O=C(CCc1ccc(Cl)s1)N1CCC(N2CCNC2=O)CC1,22.1%
CCN(CC)c1nc(C)cc(C(=O)Nc2ccc(Br)cc2)n1,8.602%
Cn1nc(Br)c2c(NCCS(N)(=O)=O)ncnc21,9.632%
COc1cc(C(=O)NS(=O)(=O)c2cncc(Br)c2)cc(OC)c1C,3.553%
O=C(c1nnn(-c2ccc(C(F)(F)F)cc2)n1)N1CC(O)C1,10.79%
CC1=N[C@@]2(CC[C@@H]3CN(S(C)(=O)=O)C[C@@H]32)C(=O)N1CC(C)C,11.11%
CC(O)(CNC(=O)c1c(F)cccc1Cl)c1ccco1 (stereo not drawn),10.63%
O=C(C1CC1)N1CCC2(COCc3cnc(NCc4ccco4)nc32)C1 (stereo not drawn),23.35%
Cn1cc(CNC2CCCN(Cc3noc(C4CC4)n3)C2)cn1 (stereo not drawn),3.061%
Cc1cnn(CC2CCCN2C(=O)CCc2ccncc2)c1 (stereo not drawn),24.31%
CNC(=O)C1CN(C(=O)c2ccncc2)CCN(S(C)(=O)=O)C1 (stereo not drawn),3.438%
Nc1cc(-c2c[nH]nc2C2CCCCN2C(=O)C2CCCC2)ccn1 (stereo not drawn),13.71%
Cc1ncc2c(n1)CN(CC(=O)Nc1ccncc1)CC2,16.54%
CCc1ccc(C(=O)N2CCCC(c3noc(CC)n3)C2)o1 (stereo not drawn),3.472%
CSCCCN1CCCC1c1noc(C(C)C)n1 (stereo not drawn),21.31%
O=C(Nc1ccc(F)cc1)NC1(CCO)CCOCC1,21.27%
CC(C)C[C@H](NC(=O)NC1CCS(=O)(=O)C1)C(=O)NCc1cccnc1 (stereo partly drawn),11.21%
O=C([C@H]1C[C@H]2OCC[C@H]2N(CC2CC2)C1)N1CCCCO1,16.42%
CCS(=O)(=O)Nc1ccn(Cc2cccc(Cl)c2)n1,11.02%

7 of the entries, repeated:

- Cn1nc(Br)c2c(NCCS(N)(=O)=O)ncnc21 : 9.632%
- O=C(Nc1ccc(F)cc1)NC1(CCO)CCOCC1 : 21.27%
- CC(c1nnc(-c2ccccc2)o1)N1CCc2cncnc2C1 (stereo not drawn) : 13.18%
- O=C(c1nnn(-c2ccc(C(F)(F)F)cc2)n1)N1CC(O)C1 : 10.79%
- Cc1ccc(C(=O)N2CCCn3nc(CCC(=O)O)cc3C2)cc1Cl : 18.73%
- COC(=O)CNC(=O)N1CCN(c2nc3ccccc3n2C)CC1 : 6.197%
- O=C(CCc1ccc(Cl)s1)N1CCC(N2CCNC2=O)CC1 : 22.1%